Measured values reported in paper doi:10.1101/2025.08.22.671827.

Sequences of proteins named here, by UniProt entry; tags and fusion partners are left off. A change or cut given only in a name is not applied to a line headed by its entry.
UniProt P39524: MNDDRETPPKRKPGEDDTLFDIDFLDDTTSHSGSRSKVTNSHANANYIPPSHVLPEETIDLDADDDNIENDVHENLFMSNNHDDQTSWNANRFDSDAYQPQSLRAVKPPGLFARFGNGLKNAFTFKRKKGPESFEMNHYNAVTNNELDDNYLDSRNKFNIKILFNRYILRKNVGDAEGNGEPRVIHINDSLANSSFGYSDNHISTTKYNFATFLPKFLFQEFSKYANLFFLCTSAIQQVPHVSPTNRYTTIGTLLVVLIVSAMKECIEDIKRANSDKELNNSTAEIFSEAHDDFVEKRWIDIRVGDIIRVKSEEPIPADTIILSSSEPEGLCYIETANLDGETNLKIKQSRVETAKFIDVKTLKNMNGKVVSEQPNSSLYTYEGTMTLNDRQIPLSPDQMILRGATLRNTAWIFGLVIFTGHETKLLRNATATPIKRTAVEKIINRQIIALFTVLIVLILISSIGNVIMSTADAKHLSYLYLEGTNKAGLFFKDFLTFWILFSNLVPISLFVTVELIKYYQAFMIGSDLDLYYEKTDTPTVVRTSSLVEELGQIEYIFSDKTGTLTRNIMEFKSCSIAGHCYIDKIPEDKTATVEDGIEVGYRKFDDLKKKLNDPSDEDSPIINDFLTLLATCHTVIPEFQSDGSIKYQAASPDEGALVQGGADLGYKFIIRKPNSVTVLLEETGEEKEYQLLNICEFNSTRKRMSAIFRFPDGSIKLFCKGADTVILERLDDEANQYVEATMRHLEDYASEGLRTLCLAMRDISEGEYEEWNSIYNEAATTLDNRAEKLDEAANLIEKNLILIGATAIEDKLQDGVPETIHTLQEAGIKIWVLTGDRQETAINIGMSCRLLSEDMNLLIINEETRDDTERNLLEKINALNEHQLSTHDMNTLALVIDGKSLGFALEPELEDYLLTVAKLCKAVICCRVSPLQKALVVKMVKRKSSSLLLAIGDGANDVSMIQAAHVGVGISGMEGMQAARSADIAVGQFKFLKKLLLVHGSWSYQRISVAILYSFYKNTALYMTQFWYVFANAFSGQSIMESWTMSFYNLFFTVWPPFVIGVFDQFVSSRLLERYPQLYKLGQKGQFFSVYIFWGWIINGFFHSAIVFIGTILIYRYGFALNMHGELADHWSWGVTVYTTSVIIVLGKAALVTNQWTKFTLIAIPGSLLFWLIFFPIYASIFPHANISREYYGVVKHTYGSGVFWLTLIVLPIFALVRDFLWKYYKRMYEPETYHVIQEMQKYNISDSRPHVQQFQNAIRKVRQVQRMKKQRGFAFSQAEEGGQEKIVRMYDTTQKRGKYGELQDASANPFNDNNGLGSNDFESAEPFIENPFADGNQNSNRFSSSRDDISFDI

Legend:
cryo-EM structure = compound: ΔNC Drs2 (residues 104-1247) (yeast) (UniProt P39524); assay: cryo-EM structure
pull-down + SEC [1] = substrate: ΔNC Drs2 (residues 104-1247) (yeast) (UniProt P39524); assay: pull-down + SEC
pull-down + SEC [2] = substrate: ΔNC Drs2^E342Q (yeast) (UniProt P39524); assay: pull-down + SEC

Measured: binding

B1: Cdc50 (protein, UniProt P25656 1-391)
chain: MVSLFKRGKAPPLTKEGPTSKKPPNTAFRQQRLKAWQPILSPQSVLPLLIFVACIFTPIGIGLIVSATKVQDLTIDYSHCDTKASTTAFEDIPKKYIKYHFKSKVENKPQWRLTENENGEQSCELQFEIPNDIKKSIFIYYKITNFYQNHRRYVQSFDTKQILGEPIKKDDLDTSCSPIRSREDKIIYPCGLIANSMFNDTFSQVLSGIDDTEDYNLTNKHISWSIDRHRFKTTKYNASDIVPPPNWMKKYPDGYTDENLPDIHTWEEFQVWMRTAAFPKFYKLTLKNESASLPKGKYQMNIELNYPISLFGGTKSFVLTTNGAIGGRNMSLGVLYLIVAGLCALFGIIFLVKLIFQPRAMGDHTYLNFDDEENEDYEDVHAENTTLREIL
binds: all assays above

Results are given in words; binding and its absence hold for the method and conditions named. Binding seen in cells or lysates may run through a third protein. Binding calls can cover weak binding; strength is not graded here.
